{
  "sequences": {"note": "Protein sequences, listed by entry. Tags and fused reporters are not part of them. Chains listed by the source or under a name are the forms on record and can include a tag or linker.", "UniProt Q12809, with tags, fused parts or gaps DEL141-380/DEL871-1005": "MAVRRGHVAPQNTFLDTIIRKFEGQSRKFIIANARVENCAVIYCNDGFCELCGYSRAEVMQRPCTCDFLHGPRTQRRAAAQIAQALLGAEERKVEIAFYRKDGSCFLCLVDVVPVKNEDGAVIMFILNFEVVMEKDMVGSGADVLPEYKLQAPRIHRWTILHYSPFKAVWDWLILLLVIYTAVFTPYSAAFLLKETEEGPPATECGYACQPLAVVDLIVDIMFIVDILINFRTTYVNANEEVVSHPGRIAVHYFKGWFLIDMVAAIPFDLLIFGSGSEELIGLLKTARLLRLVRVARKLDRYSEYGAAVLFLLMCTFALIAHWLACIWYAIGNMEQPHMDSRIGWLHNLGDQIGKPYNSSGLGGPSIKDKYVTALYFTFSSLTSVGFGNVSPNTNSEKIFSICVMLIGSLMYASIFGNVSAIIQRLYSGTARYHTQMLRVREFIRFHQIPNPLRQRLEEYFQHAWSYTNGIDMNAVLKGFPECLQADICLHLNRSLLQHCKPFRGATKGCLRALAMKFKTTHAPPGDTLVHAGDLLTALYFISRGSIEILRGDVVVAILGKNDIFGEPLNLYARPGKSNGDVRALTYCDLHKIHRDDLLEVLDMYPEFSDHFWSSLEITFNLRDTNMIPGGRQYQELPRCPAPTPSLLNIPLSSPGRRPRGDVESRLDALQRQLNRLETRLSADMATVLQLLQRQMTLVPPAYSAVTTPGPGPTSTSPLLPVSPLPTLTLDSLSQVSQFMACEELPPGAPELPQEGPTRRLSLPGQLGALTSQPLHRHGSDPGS"},
  "source": "patent US11579152B2",
  "about": "“Engineered hERG channel proteins, vesicles and methods of identifying small molecule pharmacological agents” (priority 2016, dated 2023)",
  "target": "hERG channel (Homo sapiens, UniProt Q12809, DEL141-380/DEL871-1005)",
  "test": "in vitro",
  "settings": "pH 7.4",
  "data": [
    {"smiles": "CCC[C@@H]1C[C@@H](C(=O)N[C@@H]([C@H]2O[C@H](SC)[C@H](O)[C@@H](O)[C@H]2O)[C@H](C)Cl)N(C)C1", "note": "[Clindamycin]", "values": [
      {"measurement": "inhibition at 100 µM", "result": "9.2 ± 4.3", "unit": "%"}
    ]}
  ]
}
